Source: US20240398789A1, “PHARMACEUTICAL COMPOSITION FOR ENHANCING ANTI-TUMOR EFFECT OF EZH2 INHIBITOR AND USE THEREOF” (PEKING UNIVERSITY THIRD HOSPITAL, priority 2021, published 2024)
For at least one compound, name, drawing or mass did not settle the structure.

Legend:
breast cancer cells 4T1 = assay: Incucyte real-time proliferation of 4T1 cells; format: cell-based; details: fenofibrate at certain concentrations
melanoma B16F10 cells = assay: IncuCyte S3 live-cell proliferation of B16F10 cells; format: cell-based; details: melanoma cells B16; fenofibrate at certain concentrations
Experimental: FIG. 1: Hematological tumors are more sensitive to GSK126 than solid tumors. (A) Proliferation of B16F10, Huh7 and SMMC7721 cells in GSK126 (10-20 μM) treatment was monitored by Incucyte S3 with 6 replicates per group; (B) Viabilities of Daudi and THP-1cells after GSK126 (200 nM to 24 μM) treatment for 24 h and 48 h were measured by CCK-8 assay with 5 replicates per group; (C) Western blot (WB) analysis on B16F10 cells after 48 h without or with GSK126 treatment (6 μM, and 12 μM), with H3 used as an internal reference for histone. 5 to 6 replicates were established for each group, with *P<0.05, **P<0.01, and ***P<0.001, and ns for no statistical difference.
P=0.0108, P=0.0385, Kaplan-Meier survival analysis; (C) effect of telmisartan at different concentrations on the proliferation of U87 cells (left) and U251 cells (right) (3 replicates per group); (D) effect of fenofibrate at different concentrations on the proliferation of B16F10 cells (left) and 4T1 cells (right) (3 replicates per group); (E) FACS quantitative analysis of the percentage of cells positive for EdU (FITC+) staining 48 h after the telmisartan treatment on U87 and U251 cells. Single cells were first gated, followed by FITC+cells. The percentage of FITC+ cells was listed above the corresponding cell population. […]

How did the cell proliferation (breast cancer cells 4T1) turn out when `CC(C)OC(=O)C(C)(C)Oc1ccc(C(=O)c2ccc(Cl)cc2)cc1` [fenofibrate] was run?
Its cell proliferation is “able to inhibit the proliferation”.

And the cell proliferation (melanoma B16F10 cells)?
Its cell proliferation is “able to inhibit the proliferation”.
